Values quoted from earlier work, collected in patent publication US20050171374A1, “Preparation of levulinic acid esters from alpha-angelica lactone and olefins; use of ester compositions as fuel additives” (priority 2004, published 2005).

settings: references [3], [4]

| Structure (SMILES) | Blending Octan No R + M/2 Reported |
| --- | --- |
| CCO [Ethanol, reference compound] | 100[3] |
| CCOC=O [Ethyl Formate] | 102.5[4] |
| CCOC(=O)CCC(C)=O [Ethyl Levulinate] | 107.5[4] |
| CC(=O)CCC(=O)OCC(C)C [Isobutyl Levulinate] | 102.5[4] |
| CC(=O)CCC(=O)OC(C)C [Isopropyl Levulinate] | 105[4] |
| COC(C)(C)C [MTBE, methyl tertiary-butyl ether, reference compound] | 108[3] |
| COC=O [Methyl Formate] | 101.5[4] |
| COC(=O)CCC(C)=O [Methyl Levulinate] | 106.5[4] |
| CCC(C)OC(=O)CCC(C)=O (stereo not drawn) [Sec-Butyl Levulinate] | 102.5[4] |

Where a name gives a salt, the structure may show the parent alone.
